Laboratory results as given in patent publication US20090305962A1 (Amgen, published 2009).
Changes are numbered by the printed parent chain.

Biological target: T1, human IL-6 (human, UniProt P05231 30-212)
T1 construct: the protein used was bought recombinant human IL-6 (R&D Systems), in part biotinylated; also called rhIL-6; hIL-6
T1 sequence: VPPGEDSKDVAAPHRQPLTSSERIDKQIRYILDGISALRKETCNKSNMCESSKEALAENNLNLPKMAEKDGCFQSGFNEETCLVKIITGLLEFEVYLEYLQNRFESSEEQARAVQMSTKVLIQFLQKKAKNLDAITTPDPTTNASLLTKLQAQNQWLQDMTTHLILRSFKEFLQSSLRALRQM
Assay: panning and screening on IL-6

B1: SEQ ID NO 634 (designed binder)
chain: CPSSQFQCGSGYCISPAWVCDGVNDCEDGSDEKSCAPHTCLPDQFQCGSGYCLPQAWVCDGENDCEDGSDETNCPART
B1: binds.

B2: SEQ ID NO 637 (designed binder)
chain: CLPSQFQCGSGYCISQRWVCDGENDCEDSSDEANCAGSVPTCRPGQFQCGSGYCIPRPWRCDGDNDCEDDSDEKGCARSEPT
B2: binds.

B3: SEQ ID NO 639 (designed binder)
chain: CLPSQFQCGSGYCISQRWVCDGENDCEDSSDEANCAGSVPTCRASQFQCGSGYCIPRPWLCDGVNDCEDGSDEADCQTRT
B3: binds.

B4: SEQ ID NO 640 (designed binder)
chain: CVPSQFQCGSGYCISQRWVCDGENDCEDSSDEANCAGSVPTCLPDQFQCGSGYCLPQAWVCDGENDCEDGSDETNCPART
B4: binds.

B5: SEQ ID NO 644 (designed binder)
chain: CAPNQFQCGSGYCVPAAWVCDGENDCEDNSDESSALCQERTCLPSQFQCGSGYCISQRWVCDGENDCEDSSDEANCAGSVPT
B5: binds.

B6: SEQ ID NO 646 (designed binder)
chain: B5 chain with L43V
B6: binds.

B7: SEQ ID NO 649 (designed binder)
chain: CLPSQFQCRNGRCIPLPWLCDGDNDCEDDSDETNCTPRTCLPSQFQCGSGYCISQRWVCDGENDCEDSSDEANCAGSVPT
B7: binds.

B8: SEQ ID NO 659 (designed binder)
chain: B7 chain with L41V
B8: binds.

B9: SEQ ID NO 652 (designed binder)
chain: CPPDQFQCGSGYCLPQAWVCDGENDCEDGSDETNCPARTCLSSEFTCGNGNCIPRPWVCDGDNDCVDDSDEKGCPEPT
B9: binds.

B10: SEQ ID NO 654 (designed binder)
chain: CLPSQFQCRNGRCIPLPWLCDGDNDCEDDSDETNCTPRTCLPDQFQCGSGYCLPQAWVCDGENDCEDGSDETNCPART
B10: binds.

B11: SEQ ID NO 657 (designed binder)
chain: CAPNQFQCGSGYCVPAAWVCDGENDCEDNSDESSALCQERTCLSSQFQCDNGNCVPQQWVCDGDNDCLDDSDETSCSAPASEPPGSL
B11: binds.

B12: SEQ ID NO 662 (designed binder)
chain: CVPSQFQCGSGYCISQRWVCDGENDCEDSSDEANCAGSVPTCLSSEFTCGNGNCIPRPWVCDGDNDCVDDSDEKGCPEPT
B12: binds.

B13: SEQ ID NO 666 (designed binder)
chain: CAPNQFQCGSGYCVPAAWVCDGENDCEDNSDESLAHCQAHTCVSSEFRCSSGQCIPPPWRCDGVDDCADNSDEAGCTPPT
B13: binds.

B14: SEQ ID NO 676 (designed binder)
chain: CRSNQFQCGSGYCIPVKWLCDGENDCEDGSDESLAHCQAHTCVASQFRCDNGRCLSEPLGCDGVNDCPDNSDEEDCTTAEHT
B14: binds.

B15: SEQ ID NO 678 (designed binder)
chain: CLPSQFQCGSGYCISQRWVCDGENDCEDSSDEANCAGSVPTCRSSQFQCGNGRCISVHWVCDGDDDCEDSSDESSAHCKPRT
B15: binds.

B16: SEQ ID NO 684 (designed binder)
chain: CLPSQFQCGSGYCISQRWVCDGENDCEDSSDEANCAGSVPTCRPSEYPCGNGRCVPQPLRCDGVNDCEDSSDEANCTPHT
B16: binds.

B17: SEQ ID NO 692 (designed binder)
chain: CQSDEFTCRDSNKCVSRDWLCDGEDDCPDGSDETSCAGSERTCPSSQFQCSSGWCIPEDWRCDGVPDCGDGSDEASCPPHT
B17: binds.

B18: SEQ ID NO 693 (designed binder)
chain: CVPSQFQCGSGYCISQRWVCDGENDCEDSSDEANCAGSVPTCPSNEFPCESGHCVPLTWRCDGEDDCPDSSDEANCGRPGPGATSVPAA
B18: binds.

B19: SEQ ID NO 696 (designed binder)
chain: CLPSQFQCGSGYCISQRWVCDGENDCEDSSDEANCAGSVPTCPSGEFRCGNGSCLPAGWVCDGVDDCVDGSDEKGCQTPT
B19: binds.

B20: SEQ ID NO 698 (designed binder)
chain: CVPSQFQCGSGYCISQRWVCDGENDCEDGSDEANCAGSVPTCPSDEFRCRNGRCIPRAWRCDGVNDCADNSDEEDCTEHT
B20: binds.

B21: SEQ ID NO 706 (designed binder)
chain: CQSGQFPCGNGNCIPRPLRCDGVDDCPDGSDEPPECPQPTCLPSQFQCGSGYCISRRWVCDGENDCEDSSDEKGCTPHT
B21: binds.

B22: SEQ ID NO 721 (designed binder)
chain: CLPSQFQCGSGYCISQRWVCDGENDCEDGSDEESCTGPGHTCLPSQFQCGSGYCISQRWVCDGENDCEDSSDEANCAGSVPT
B22: binds.

B23: SEQ ID NO 728 (designed binder)
chain: CPAGQFTCGSGKCVSGGLLCDGDNDCQDGSDEAGCATRTCLPSQFQCGSGYCISQRWVCDGENDCEDSSDEANCAGSVPT
B23: binds.

B24: SEQ ID NO 729 (designed binder)
chain: CAPDQFKCGNGNCLPLPWVCDGDNDCGDNSDEANCPQHTCLPSQFQCGSGYCISQRWVCDGENDCEDSSDEANCAGSVPT
B24: binds.

B25: SEQ ID NO 736 (designed binder)
chain: CAPSQFPCSSNDICVPRRWRCDGVDDCGDSSDEASCGTSVRTCLPSQFQCGSGYCISQRWVCDGENDCEDSSDEANCAGSVPT
B25: binds.

B26: SEQ ID NO 755 (designed binder)
chain: CRASEFRCRSYERCISPRWVCDGVNDCGDNSDETGCPPRTCLPDQFQCGSGYCLPQRWVCDGVDDCEDSSDEKGCTPHT
B26: binds.

B27: SEQ ID NO 756 (designed binder)
chain: CPLDQFTCGNGSCLPANLLCDGVNDCEDNSDEAGCPTRTCLPDQFQCGSGYCLPQRWVCDGVDDCEDSSDEKGCTPHM
B27: binds.

B28: SEQ ID NO 771 (designed binder)
chain: CLPSQFQCGSGYCISQRWVCDGENDCEDSSDEANCAGSVPTCGGSEFTCGNGRCLPQHWFCDGENDCLDDSDEAGCPAPT
B28: binds.

B29: SEQ ID NO 775 (designed binder)
chain: CQPFDEFECRNGSCIPLPWRCDGVNDCLDDSDEEDCTGSAPTCAPSQFQCGSGYCIPQRWVCDGVDDCEDSSDEKGCTPHT
B29: binds.

B30: SEQ ID NO 783 (designed binder)
chain: CLPDQFPCENGKCLPVNLVCDGDDDCPDGSDESEVCAGAVRTCLPDQFRCGNGQCIPLDWVCDGVNDCADNSDETGCPTRTCLPSQFQCGSGWCISQRWVCDGENDCEDSSDEANCAGSVPT
B30: binds.

B31: SEQ ID NO 786 (designed binder)
chain: CLPNQFTCDSGNCVPQALGCDGDNDCEDNSDESPALCAAPAHTCQANEFTCSSGNCLSPALLCDGVDDCGDNSDETYCAGPAPTCLPSQFRCGSGCCFSQRWVCDGKNDCEDSSDEANCAGSLPT
B31: binds.

B32: SEQ ID NO 788 (designed binder)
chain: CGASQFQCGSGYCISQRWVCDGENDCEDSSDEANCAGSVPTCLPSEFQCRDSKICLSADWLCDGVNDCADNSDEEGCPPPTCLPDQFQCGSGYCLPQAWVCDGENDCEDGSDETNCPART
B32: binds.

B33: SEQ ID NO 795 (designed binder)
chain: CPSSQFRCSSGRCVPADWLCDGVNDCADNSDETGCPTRTCLPSQFQCGSGYCISQRWVCDGENDCEDSSDEANCAGSVPTCPSDEFRCRNGRCIPRAWRCDGVNDCADNSDEEDCTEHT
B33: binds.

B34: SEQ ID NO 796 (designed binder)
chain: B33 chain with P36A
B34: binds.

B35: SEQ ID NO 797 (designed binder)
chain: B33 chain with A27G, T33A, S68G
B35: binds.

B36: SEQ ID NO 811 (designed binder)
chain: B33 chain with P2R, S3A, S4D, Q5E, R7Q, S9G, S68G
B36: binds.

B37: SEQ ID NO 798 (designed binder)
chain: B33 chain with S4D, Q5E, R7T, S9D, P15S, A16L, D17N, A27G, T33A
B37: binds.

B38: SEQ ID NO 799 (designed binder)
chain: B33 chain with S4D, Q5E, R7T, S9D, P15S, A16L, D17N, A27G, T33A, S68G
B38: binds.

B39: SEQ ID NO 810 (designed binder)
chain: CGSNEFTCSNGRCIPPTLLCDGVNDCGDDSDETGCATPVRTCLPSQFQCGSGYCISQRWVCDGENDCEDGSDEANCAGSVPTCPSDEFRCRNGRCIPRAWRCDGVNDCADNSDEEDCTEHT
B39: binds.

B40: SEQ ID NO 812 (designed binder)
chain: CPSSQFRCSSGRCVPADWLCDGVNDCADNSDETGCPTRTCLPSQFQCGSGYCISQRWVCDGENDCEDGSDEANCAGSVPTCPSDEFRCRNGRCIPPGWLCDGVDDCVDDSDEEGCRTPART
B40: binds.

B41: SEQ ID NO 813 (designed binder)
chain: CPSSQFRCSSGRCVPADWLCDGVNDCADNSDETGCPTRTCLPSQFQCGSGYCISQRWVCDGENDCEDSSDEANCAGSVPTCPPGQFTCNNGRCVPPTWLCDGEDDCQDDSDEKNCKAPT
B41: binds.
